Data from publication PMC8881470.
These are yes or no findings as the source states them, for the method shown. For some of these results: In cells and extracts the contact can be indirect. Some binding calls cover weakened binding; strength is not graded here.

The chains behind the UniProt entries cited, without tags or fusion partners.
UniProt Q9QZL0: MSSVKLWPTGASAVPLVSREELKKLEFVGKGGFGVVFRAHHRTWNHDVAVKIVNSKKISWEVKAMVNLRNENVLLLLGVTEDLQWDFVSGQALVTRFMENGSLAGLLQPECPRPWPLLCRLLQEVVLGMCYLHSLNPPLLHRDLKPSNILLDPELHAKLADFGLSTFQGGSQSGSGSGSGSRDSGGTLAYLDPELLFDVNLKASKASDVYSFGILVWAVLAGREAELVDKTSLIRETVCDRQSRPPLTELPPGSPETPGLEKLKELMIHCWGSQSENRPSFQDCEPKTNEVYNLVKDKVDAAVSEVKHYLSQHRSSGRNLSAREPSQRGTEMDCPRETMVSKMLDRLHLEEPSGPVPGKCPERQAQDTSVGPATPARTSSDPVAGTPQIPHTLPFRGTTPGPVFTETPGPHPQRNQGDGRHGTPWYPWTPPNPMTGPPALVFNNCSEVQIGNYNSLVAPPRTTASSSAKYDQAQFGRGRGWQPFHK

Legend:
[1] = molecular target: mixed lineage kinase domain-like protein (mouse (endogenous in peritoneal macrophages)) (UniProt Q9D2Y4); assay: non-reducing PAGE; as a4, macrophages pretreated with HG-9-91-01 for 30 min before TNF + zVAD, LPS + zVAD or poly I:C + zVAD
[2] = molecular target: Receptor-interacting protein kinase 3 (mouse (endogenous in peritoneal macrophages)) (UniProt Q9QZL0); assay: co-IP; endogenous proteins; peritoneal macrophages treated with TNF + zVAD or poly I:C + zVAD, with or without 30 min pretreatment with HG-9-91-01; lysis buffer 50 mM Tris-HCl pH 7.5, 150 mM NaCl, 1.0% Triton X-100, 1 mM EDTA, 10% glycerol; anti-RIPK3 antibody overnight at 4 °C, protein A/G magnetic beads; immunoblot
[3] = molecular target: mixed lineage kinase domain-like protein (mouse (endogenous in peritoneal macrophages)) (UniProt Q9D2Y4); assay: non-reducing PAGE; peritoneal macrophages treated with TNF + zVAD, LPS + zVAD or poly I:C + zVAD; harvested in DTT-free SDS sample buffer; immunoblot with MLKL antibody
[4] = molecular target: Receptor-interacting protein kinase 3 (mouse (endogenous in peritoneal macrophages)), Q9QZL0; assay: co-IP; endogenous proteins; peritoneal macrophages treated with TNF + zVAD or poly I:C + zVAD, with or without 30 min pretreatment with HG-9-91-01; lysis buffer 50 mM Tris-HCl pH 7.5, 150 mM NaCl, 1.0% Triton X-100, 1 mM EDTA, 10% glycerol; anti-RIPK3 antibody overnight at 4 °C, protein A/G magnetic beads; immunoblot; details: remark: other sources report otherwise

Row | binding [2] | binding [3] | binding [4] | Binder | binding [1]
1 | binds | binds | – | mixed lineage kinase domain-like protein (protein, UniProt Q9D2Y4 1-472) MDKLGQIIKLGQLIYEQCEKMKYCRKQCQRLGNRVHGLLQPLQRLQAQGKKNLPDDITAALGRFDEVLKEANQQIEKFSKKSHIWKFVSVGNDKILFHEVNEKLRDVWEELLLLLQVYHWNTVSDVSQPASWQQEDRQDAEEDGNENMKVILMQLQISVEEINKTLKQCSLKPTQEIPQDLQIKEIPKEHLGPPWTKLKTSKMSTIYRGEYHRSPVTIKVFNNPQAESVGIVRFTFNDEIKTMKKFDSPNILRIFGICIDQTVKPPEFSIVMEYCELGTLRELLDREKDLTMSVRSLLVLRAARGLYRLHHSETLHRNISSSSFLVAGGYQVKLAGFELSKTQNSISRTAKSTKAERSSSTIYVSPERLKNPFCLYDIKAEIYSFGIVLWEIATGKIPFEGCDSKKIRELVAEDKKQEPVGQDCPELLREIINECRAHEPSQRPSVDGRSLSGRERILERLSAVEESTDKKV | no binding (condition: cells pretreated with HG-9-91-01)
2 | – | – | binds | RIPK1, Q60855 1-656 (protein) MQPDMSLDNIKMASSDLLEKTDLDSGGFGKVSLCYHRSHGFVILKKVYTGPNRAEYNEVLLEEGKMMHRLRHSRVVKLLGIIIEEGNYSLVMEYMEKGNLMHVLKTQIDVPLSLKGRIIVEAIEGMCYLHDKGVIHKDLKPENILVDRDFHIKIADLGVASFKTWSKLTKEKDNKQKEVSSTTKKNNGGTLYYMAPEHLNDINAKPTEKSDVYSFGIVLWAIFAKKEPYENVICTEQFVICIKSGNRPNVEEILEYCPREIISLMERCWQAIPEDRPTFLGIEEEFRPFYLSHFEEYVEEDVASLKKEYPDQSPVLQRMFSLQHDCVPLPPSRSNSEQPGSLHSSQGLQMGPVEESWFSSSPEYPQDENDRSVQAKLQEEASYHAFGIFAEKQTKPQPRQNEAYNREEERKRRVSHDPFAQQRARENIKSAGARGHSDPSTTSRGIAVQQLSWPATQTVWNNGLYNQHGFGTTGTGVWYPPNLSQMYSTYKTPVPETNIPGSTPTMPYFSGPVADDLIKYTIFNSSGIQIGNHNYMDVGLNSQPPNNTCKEESTSRHQAIFDNTTSLTDEHLNPIRENLGRQWKNCARKLGFTESQIDEIDHDYERDGLKEKVYQMLQKWLMREGTKGATVGKLAQALHQCCRIDLLNHLIRASQS | –
